Literature values in US4032625A, “Bone-seeking technetium-99m complex” (priority 1975, dated 1977).
At least one compound was matched to its structure with a doubt left.

Conditions: cited from earlier work

[85Sr] [^85 Sr]
half-life (radioactive): 65 days

[99Tc] [technetium-99m]
half-life (radioactive): 0.25 days
